Results from paper doi:10.1101/2023.08.07.552250.
Changes are numbered by the printed parent chain. Like-named read-outs stand apart in the source and are kept apart here. No constants are given. Whether binding was seen depends on the method and setting. For part of these data: In cells and extracts the contact can be indirect. Some entries that bind do so weakly or less than the wild type. For part of these data: Where a sequence is shown, tags or fusion partners need not be part of it.

Amino acid sequences for entries named in this document (tags omitted). A change or cut given only in a name is not applied to a line headed by its entry.
UniProt Q9LY75, whole entry: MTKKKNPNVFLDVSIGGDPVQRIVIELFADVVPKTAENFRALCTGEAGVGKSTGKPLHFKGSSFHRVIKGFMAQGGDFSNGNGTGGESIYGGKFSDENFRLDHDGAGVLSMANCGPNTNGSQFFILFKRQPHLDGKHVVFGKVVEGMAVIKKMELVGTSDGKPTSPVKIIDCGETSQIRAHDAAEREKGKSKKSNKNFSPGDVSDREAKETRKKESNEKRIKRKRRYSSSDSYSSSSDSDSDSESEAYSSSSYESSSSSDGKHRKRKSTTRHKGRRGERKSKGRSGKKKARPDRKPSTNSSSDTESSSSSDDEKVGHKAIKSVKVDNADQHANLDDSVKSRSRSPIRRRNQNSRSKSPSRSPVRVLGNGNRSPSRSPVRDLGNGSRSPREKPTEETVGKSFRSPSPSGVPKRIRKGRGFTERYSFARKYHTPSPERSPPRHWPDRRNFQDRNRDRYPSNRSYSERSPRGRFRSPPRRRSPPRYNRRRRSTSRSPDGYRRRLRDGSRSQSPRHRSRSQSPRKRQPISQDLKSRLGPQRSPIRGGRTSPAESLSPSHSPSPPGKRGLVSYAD
UniProt Q94A52, whole entry: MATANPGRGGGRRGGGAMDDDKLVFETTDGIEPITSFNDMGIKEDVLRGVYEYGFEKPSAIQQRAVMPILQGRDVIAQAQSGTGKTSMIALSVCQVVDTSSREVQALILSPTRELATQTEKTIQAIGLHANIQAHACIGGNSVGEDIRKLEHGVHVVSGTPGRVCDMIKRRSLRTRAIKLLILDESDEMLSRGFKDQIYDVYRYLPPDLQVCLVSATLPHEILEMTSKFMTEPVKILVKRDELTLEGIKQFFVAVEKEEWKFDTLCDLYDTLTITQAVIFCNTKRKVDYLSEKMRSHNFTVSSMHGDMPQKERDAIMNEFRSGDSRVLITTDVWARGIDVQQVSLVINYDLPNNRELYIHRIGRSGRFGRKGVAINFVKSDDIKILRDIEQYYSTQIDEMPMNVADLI

B1: PRP38 (Pre-mRNA Processing factor 38) (protein, UniProt Q8LB54 1-355)
chain: MANRTDPLAKNIRGTNPQNLVEKIVRTKIYQHTFWKEQCFGLTAETLVDKAMELDHLGGTFGGSRKPTPFLCLILKMLQIQPEKEIVVEFIKNDDYKYVRILGAFYLRLTGTDVDVYRYLEPLYNDYRKVRQKLSDGKFSLTHVDEVIEELLTKDYSCDIAMPRLKKRWTLEQNGLLEPRKSVLEDDFEEEEEKEENEGIADGSEDEMDQRRKSPERERERDRDRRRDSHRHRDRDYDRDYDMDRDHDRDYERERGHGRDRDRERDRDHYRERDRDRERGRDRERDRRDRARRRSRSRSRDRKRHETDDVRDREEPKKKKEKKEKMKEDGTDHPNPEIAEMNRLRASLGMKPLRD
B2: RS2Z32 (arginine/serine-rich zinc knuckle-containing protein 32) (protein, UniProt Q9FYB7 1-284)
chain: MPRYDDRYGNTRLYVGRLSSRTRTRDLERLFSRYGRVRDVDMKRDYAFVEFSDPRDADDARYYLDGRDFDGSRITVEASRGAPRGSRDNGSRGPPPGSGRCFNCGVDGHWARDCTAGDWKNKCYRCGERGHIERNCKNSPSPKKARQGGSYSRSPVKSRSPRRRRSPSRSRSYSRGRSYSRSRSPVRREKSVEDRSRSPKAMERSVSPKGRDQSLSPDRKVIDASPKRGSDYDGSPKENGNGRNSASPIVGGGESPVGLNGQDRSPIDDEAELSRPSPKGSESP
B3: MOS12 (MODIFIER OF SNC1-1, 12) (protein, UniProt Q8RWV3 1-416)
chain: MIYTAIDNFYLSDEQLKASPSRKDGIDETTEISLRIYGCDLIQEGGILLKLPQAVMATGQVLFQRFYCKKSLAKFDVKIVAASCVWLASKLEENPKKARQVIIVFHRMECRRENLPLEHLDMYAKKFSELKVELSRTERHILKEMGFVCHVEHPHKFISNYLATLETPPELRQEAWNLANDSLRTTLCVRFRSEVVACGVVYAAARRFQVPLPENPPWWKAFDADKSSIDEVCRVLAHLYSLPKAQYISVCKDGKPFTFSSRSGNSQGQSATKDLLPGAGEAVDTKCTAGSANNDLKDGMVTTPHEKATDSKKSGTESNSQPIVGDSSYERSKVGDRERESDREKERGRERDRGRSHRGRDSDRDSDRERDKLKDRSHHRSRDRLKDSGGHSDKSRHHSSRDRDYRDSSKDRRRHH
B4: Cyp59 (protein, UniProt Q6Q151 1-506)
chain: MSVLIVTSLGDIVIDLHSDKCPLTCKNFLKLCKIKYYNGCLFHTVQKDFTAQTGDPTGTGAGGDSIYKFLYGEQARFYKDEIHLDLKHSKTGTVAMASGGENLNASQFYFTLRDDLDYLDGKHTVFGQIAEGFDTLTRINEAYVDPKNRPYKNIRIKHTHILDDPFDDPPQLAEMMPDASPEGKPKEEVKDDVRLEDDWVPMDEELGAQELEEVIREKAAHSSAVVLESIGDIPEAEVKPPDNVLFVCKLNPVTEDEDLHTIFSRFGTVVSADVIRDFKTGDSLCYAFIEFENKESCEQAYFKMDNALIDDRRIHVDFSQSVSKLWSQFRQKDSQKGKGNGCFKCGSTDHIAKDCVGGPSSKFIVKDQNRQHGGGEGYEMVFEGDVHETPKHNSHERERSEKIQRRSPHGNGEGKRQHRDERDDGRRQHDREDARELERKHRERKERESREDEDRRRRRRREESRDKESRRERDEDDHRSHRDYKERRRERDDRHGREARHERRDR
B5: CypRS92 (protein, UniProt Q8RWY7 1-837)
chain: MAKKKNPQVFMDVSIDGDPAETMVFELFPEVAPKTSENFRALCTGEKGIGPRSGKPLHYKGSFFHRIMKGSSAQAGDFVNRNGTAGESIYAGKFPDESPKLRHEETGLLSMSIADRDKFGSHFHITFRPNQQLDRNNVVFGKLIQGKEILKKIERVGDEEGKPTVSVKIIRCGEYSGDKKKSDGKKNGKHKKSLRVRRKKRRRHSSSESESSSDSETDSSESDSESDSDLSSPSFLSSSSHERQKKRKRSSKKDKHRRSKQRDKRHEKKRSMRDKRPKRKSRRSPDSLEDSNSGSEASLSDVNVEIGAKKRKHRVSRRTGNSAPAVEKEAESLHQGKRKGPDLLENRGLRSNGISDAASEQISDRQPDIVDDHPSKSRSRSLSPKRTVSKSTSVSPRRSQSKSPSSSPRWNGGRSPAKGSRQVKNLTNSRRESPGSEEKGRHVRRSPTKSVSRSPVRVKKERDISRSPSKSLSRSPLRSPKRVISRSPVRGRIARSPSRSPVRSASRGSLGRGPLRRSSRRSPSRSPVRSSRRSLSRSPIQLSRRSLSRSPTRLSRRSLSRSPIRSPRKSVSRSPVRSSRKSVSRSPVRSSRRRISRSPVRSSRKSVSRSPIRLSRRSISRSPIRLSRRSISRSPVRGRRRISRSPVPARRRSVRPRSPPPDRRRSLSRSASPNGRIRRGRGFSQRFSYARRYRTSPSPDRSPYRFSDRSDRDRFRSRRRFSPSRFRSPLRGRTPPRYRRRSRSVSPGLCYRNRRYSRSPIRSRSPPYRKRRSPSASHSLSPSRSRSRSKSYSKSPIGTGKARSVSRSPSKARSPSKSDSTSSDNSPGGKKGLVAYD
B6: ALY4 (protein, UniProt Q6NQ72 1-288)
chain: MSGALNMTLDEIVKRGKTARSGGRGISRGRGRGRGGGGRGAGPARRGPLAVNARPSSFTINKPVRRVRSLPWQSGLFEDGLRAAGASGVEVGTRLHVTNLDQGVTNEDIRELFSEIGEVERYAIHYDKNGRPSGTAEVVYPRRSDAFQALKKYNNVLLDGRPMRLEILGGNNSSEAPLSGRVNVNVTGLNGRLKRTVVIQQGGGGRGRVRGGRGGRGPAPTVSRRLPIHNQQGGGMRGGRGGFRARGRGNGGRGRGGGRGNGKKPVEKSAADLDKDLESYHADAMNTS
B7: SR34:NYFP (protein, UniProt O22315 1-303)
chain: MSSRSSRTVYVGNLPGDIREREVEDLFSKYGPVVQIDLKVPPRPPGYAFVEFDDARDAEDAIHGRDGYDFDGHRLRVELAHGGRRSSDDTRGSFNGGGRGGGRGRGDGGSRGPSRRSEFRVLVTGLPSSASWQDLKDHMRKGGDVCFSQVYRDARGTTGVVDYTCYEDMKYALKKLDDTEFRNAFSNGYVRVREYDSRKDSRSPSRGRSYSKSRSRSRGRSVSRSRSRSRSRSRSPKAKSSRRSPAKSTSRSPGPRSKSRSPSPRRSRSRSRSPLPSVQKEGSKSPSKPSPAKSPIHTRSPSR
B8: PRP38:NYFP (protein, UniProt Q8LB54 1-355)
chain: B1 chain

What was measured:
[1] = target: T1, serine/arginine-rich 45 (SR45), SR45.1 isoform (Arabidopsis thaliana) (UniProt Q9SEE9); assay: two-hybrid
T1 sequence: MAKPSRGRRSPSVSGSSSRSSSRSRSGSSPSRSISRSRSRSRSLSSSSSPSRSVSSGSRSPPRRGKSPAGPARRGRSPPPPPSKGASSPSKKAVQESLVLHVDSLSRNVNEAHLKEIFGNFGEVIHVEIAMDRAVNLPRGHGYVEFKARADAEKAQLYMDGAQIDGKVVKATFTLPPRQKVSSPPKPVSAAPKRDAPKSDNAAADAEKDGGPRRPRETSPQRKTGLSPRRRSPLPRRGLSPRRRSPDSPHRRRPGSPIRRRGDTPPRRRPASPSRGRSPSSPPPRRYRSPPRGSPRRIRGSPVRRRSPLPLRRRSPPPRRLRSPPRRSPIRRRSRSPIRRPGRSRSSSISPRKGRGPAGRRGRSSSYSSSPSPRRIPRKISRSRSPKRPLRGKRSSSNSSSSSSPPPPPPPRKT

[2] = target: T2, SR45mutRRM (Arabidopsis thaliana) (UniProt Q9SEE9); assay: two-hybrid
T2 sequence: T1 sequence with H101A, H141A, Y143A

[3] = target: T1, serine/arginine-rich 45 (SR45), SR45.1 isoform (Arabidopsis thaliana); assay: two-hybrid; remark: listed apart in the source
[4] = target: T2, SR45mutRRM (Arabidopsis thaliana); assay: two-hybrid; remark: listed apart in the source
[5] = target: T1, serine/arginine-rich 45 (SR45), SR45.1 isoform (Arabidopsis thaliana); assay: two-hybrid; remark: listed apart in the source
[6] = target: T3, SR45:CYFP (Arabidopsis thaliana) (UniProt Q9SEE9); assay: split reporter
T3 sequence: T1 sequence

[7] = target: T4, SR45mutRRM fused to CYFP (Arabidopsis thaliana) (UniProt Q9SEE9); assay: split reporter
T4 sequence: T1 sequence with H101A, H141A, Y143A

Molecule	binding [1]	binding [4]	binding [5]	other results
CypRS64 (Cyclophilin-containing RS domain of 64 kDa) (from UniProt Q9LY75 1-570)	binds			binding [2]: no binding; binding [3]: binds
eukaryotic initiation factor 4A3 (eIF4AIII) (from UniProt Q94A52 1-408)				binding [3]: no binding
B1	binds	binds weakly	binds	
B2	binds		binds	
B3	binds		binds	
B4		no binding	binds	
B5		no binding	binds	
B6		binds weakly	binds	
B7				binding [6]: binds; binding [7]: binds
B8				binding [6]: binds; binding [7]: binds
